{"source": "PubChem BioAssay AID686943 – Drosophila RNAi Screening Center | 2013", "test": "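Fly genes whose loss alters ERK activation after insulin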 (primary screen)", "cells": "Drosophila S2R+ haemocyte-like cells expressing YFP-tagged ERK (Rolled)", "knock-down reagent": "long dsRNA against Drosophila genes", "conditions": "insulin stimulation versus unstimulated cells; dose and duration not given", "detection": "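Per-plate z-scores of phospho-ERK immunostaining normalised to YFP-tagged ERK, measured with and without insulin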", "reading the numbers": "replicate 1, z-score of dpERK with insulin and replicate 2, z-score of dpERK with insulin: higher = more active ERK per ERK-YFP after insulin", "note": "The deposit covers about 23,000 reagents; shown is a random part of those that have a named target and a result. 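Extra replicates exist only for a retested subset of genes; insulin dose and duration not given; both raised and lowered dpERK matter.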 Reagents against one gene are numbered here. Not all columns of the deposit are shown. The record does not give: the amount of reagent, the time to read-out."}
{"gene": "CG1537 (GeneID 32037)", "reagent no.": 1, "replicate 1, z-score of dpERK with insulin": 0.6, "replicate 2, z-score of dpERK with insulin": 0.08}
{"gene": "emc (GeneID 38091)", "reagent no.": 1, "replicate 1, z-score of dpERK with insulin": -2.9, "replicate 2, z-score of dpERK with insulin": 0}
{"gene": "Nplp1 (GeneID 38003)", "reagent no.": 1, "replicate 1, z-score of dpERK with insulin": -0.17, "replicate 2, z-score of dpERK with insulin": 0.28}
{"gene": "Ctu2 (GeneID 35234)", "reagent no.": 1, "replicate 1, z-score of dpERK with insulin": 0.32, "replicate 2, z-score of dpERK with insulin": 0.07}
{"gene": "Ccdc114 (GeneID 42024)", "reagent no.": 1, "replicate 1, z-score of dpERK with insulin": -0.87, "replicate 2, z-score of dpERK with insulin": -1.49}
{"gene": "mor (GeneID 41942)", "reagent no.": 1, "replicate 1, z-score of dpERK with insulin": 0.2, "replicate 2, z-score of dpERK with insulin": -1.62}
{"gene": "nAChRalpha4 (GeneID 40521)", "reagent no.": 1, "replicate 1, z-score of dpERK with insulin": -0.41, "replicate 2, z-score of dpERK with insulin": -0.2}
{"gene": "nAChRalpha4 (GeneID 40521)", "reagent no.": 2, "replicate 1, z-score of dpERK with insulin": 1.14, "replicate 2, z-score of dpERK with insulin": 0.5}
{"gene": "Nepl15 (GeneID 42701)", "reagent no.": 1, "replicate 1, z-score of dpERK with insulin": 0.5, "replicate 2, z-score of dpERK with insulin": 0.32}
{"gene": "CG8237 (GeneID 35891)", "reagent no.": 1, "replicate 1, z-score of dpERK with insulin": -0.85, "replicate 2, z-score of dpERK with insulin": -0.64}
{"gene": "CG7903 (GeneID 43554)", "reagent no.": 1, "replicate 1, z-score of dpERK with insulin": 0.17, "replicate 2, z-score of dpERK with insulin": -0.32}
{"gene": "CG34337 (GeneID 5740569)", "reagent no.": 1, "replicate 1, z-score of dpERK with insulin": 0.01, "replicate 2, z-score of dpERK with insulin": 0.6}
{"gene": "E(bx) (GeneID 44811)", "reagent no.": 1, "replicate 1, z-score of dpERK with insulin": 0.15, "replicate 2, z-score of dpERK with insulin": -0.18}
{"gene": "E(bx) (GeneID 44811)", "reagent no.": 2, "replicate 1, z-score of dpERK with insulin": -0.85, "replicate 2, z-score of dpERK with insulin": -0.1}
{"gene": "E(bx) (GeneID 44811)", "reagent no.": 3, "replicate 1, z-score of dpERK with insulin": -0.49, "replicate 2, z-score of dpERK with insulin": -0.22}
{"gene": "CG5776 (GeneID 34680)", "reagent no.": 1, "replicate 1, z-score of dpERK with insulin": 0.58, "replicate 2, z-score of dpERK with insulin": 0.17}
{"gene": "CG1236 (GeneID 40708)", "reagent no.": 1, "replicate 1, z-score of dpERK with insulin": -0.35, "replicate 2, z-score of dpERK with insulin": -0.45}
{"gene": "CG8642 (GeneID 35845)", "reagent no.": 1, "replicate 1, z-score of dpERK with insulin": 0.04, "replicate 2, z-score of dpERK with insulin": -0.53}
{"gene": "CG32243 (GeneID 317935)", "reagent no.": 1, "replicate 1, z-score of dpERK with insulin": 0.2, "replicate 2, z-score of dpERK with insulin": 0.48}

Laid out differently: entries from further up.
emc (GeneID 38091) | replicate 1, z-score of dpERK with insulin: -2.9; replicate 2, z-score of dpERK with insulin: 0
Nplp1 (GeneID 38003) | replicate 1, z-score of dpERK with insulin: -0.17; replicate 2, z-score of dpERK with insulin: 0.28
Ctu2 (GeneID 35234) | replicate 1, z-score of dpERK with insulin: 0.32; replicate 2, z-score of dpERK with insulin: 0.07

More entries follow:
{"gene": "CG10910 (GeneID 37052)", "reagent no.": 1, "replicate 1, z-score of dpERK with insulin": 0.9, "replicate 2, z-score of dpERK with insulin": -0.1}
{"gene": "mid (GeneID 33770)", "reagent no.": 1, "replicate 1, z-score of dpERK with insulin": -0.32, "replicate 2, z-score of dpERK with insulin": -1.26}
{"gene": "mid (GeneID 33770)", "reagent no.": 2, "replicate 1, z-score of dpERK with insulin": 0.2, "replicate 2, z-score of dpERK with insulin": -0.01}
{"gene": "RpS14a (GeneID 47218)", "reagent no.": 1, "replicate 1, z-score of dpERK with insulin": 1.82, "replicate 2, z-score of dpERK with insulin": -1.34}
{"gene": "CG17167 (GeneID 3354991)", "reagent no.": 1, "replicate 1, z-score of dpERK with insulin": -0.14, "replicate 2, z-score of dpERK with insulin": 0.01}
{"gene": "CG17167 (GeneID 3354991)", "reagent no.": 2, "replicate 1, z-score of dpERK with insulin": -1.32, "replicate 2, z-score of dpERK with insulin": -0.61}
{"gene": "CG13972 (GeneID 43307)", "reagent no.": 1, "replicate 1, z-score of dpERK with insulin": -0.72, "replicate 2, z-score of dpERK with insulin": -1.47}
{"gene": "Gr39b (GeneID 117347)", "reagent no.": 1, "replicate 1, z-score of dpERK with insulin": 1.54, "replicate 2, z-score of dpERK with insulin": 1.29}
{"gene": "RpL5 (GeneID 3355124)", "reagent no.": 1, "replicate 1, z-score of dpERK with insulin": -2.24, "replicate 2, z-score of dpERK with insulin": -1.55}
{"gene": "CG6180 (GeneID 34683)", "reagent no.": 1, "replicate 1, z-score of dpERK with insulin": 0.59, "replicate 2, z-score of dpERK with insulin": 0.85}
{"gene": "AhcyL1 (GeneID 38342)", "reagent no.": 1, "replicate 1, z-score of dpERK with insulin": 0.29, "replicate 2, z-score of dpERK with insulin": -0.06}
{"gene": "CG15210 (GeneID 50323)", "reagent no.": 1, "replicate 1, z-score of dpERK with insulin": 0.18, "replicate 2, z-score of dpERK with insulin": 0.06}
